This is an account of results in publication doi:10.1101/2021.04.14.439704.

Sequences of proteins named here, by UniProt entry; tags and fusion partners are left off.
UniProt P20719: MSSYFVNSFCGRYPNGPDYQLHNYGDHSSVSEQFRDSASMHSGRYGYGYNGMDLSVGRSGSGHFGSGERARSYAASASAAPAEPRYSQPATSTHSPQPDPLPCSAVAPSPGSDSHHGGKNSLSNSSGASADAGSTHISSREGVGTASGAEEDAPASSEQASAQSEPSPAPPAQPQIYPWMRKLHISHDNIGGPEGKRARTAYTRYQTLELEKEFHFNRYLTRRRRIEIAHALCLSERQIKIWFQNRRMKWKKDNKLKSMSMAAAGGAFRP
UniProt P09382: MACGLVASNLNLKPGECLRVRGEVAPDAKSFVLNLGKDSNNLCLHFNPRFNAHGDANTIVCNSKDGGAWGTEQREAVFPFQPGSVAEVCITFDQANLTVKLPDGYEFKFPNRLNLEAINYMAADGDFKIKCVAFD

Results are given in words; binding and its absence hold for the method and conditions named. Binding seen in cells or lysates may run through a third protein. Some results given as binding are weak or reduced against the parent protein; the word gives no strength.

Assay [1] concerns the target Homeobox A5 (HOXA5) (human (endogenous in patient-derived BTSCs)) (UniProt P20719). The experiment in a line: proximity ligation.
Assay [2] shares this target. The experiment in a line: co-IP.

For galectin1 (from UniProt P09382 1-135), the binding entry in assay [1] and in assay [2] was “binds” each time.
